According to publication PMC2413007:
These are yes or no findings as the source states them, for the method shown. Some entries that bind do so weakly or less than the wild type.

Chains of the proteins cited; added tags and fusions are not shown. Residues count along the entry.
UniProt O60603, residues 21-590: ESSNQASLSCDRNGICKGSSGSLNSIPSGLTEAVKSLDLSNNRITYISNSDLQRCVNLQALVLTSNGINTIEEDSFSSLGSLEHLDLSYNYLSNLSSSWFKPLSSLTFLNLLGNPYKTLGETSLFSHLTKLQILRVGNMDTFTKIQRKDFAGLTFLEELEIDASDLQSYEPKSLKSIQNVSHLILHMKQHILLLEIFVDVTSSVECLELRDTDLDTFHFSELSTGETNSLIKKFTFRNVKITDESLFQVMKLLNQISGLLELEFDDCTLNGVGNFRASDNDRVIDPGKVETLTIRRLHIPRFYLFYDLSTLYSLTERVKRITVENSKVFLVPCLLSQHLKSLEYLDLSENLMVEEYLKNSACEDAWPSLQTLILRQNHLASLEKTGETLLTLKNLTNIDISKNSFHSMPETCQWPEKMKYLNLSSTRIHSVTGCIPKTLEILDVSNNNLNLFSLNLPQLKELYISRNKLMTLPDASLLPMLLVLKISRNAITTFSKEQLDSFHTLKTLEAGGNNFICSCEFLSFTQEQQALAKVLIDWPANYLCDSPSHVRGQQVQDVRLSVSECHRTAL

Biological target: soluble form of human recombinant TLR2 (extracellular domain Glu 21-Leu 590) (human) (UniProt O60603)
Assay: other fluorescence titration; intrinsic tyrosine fluorescence of soluble TLR-2 (15 or 76 nM), excitation 277 nm, change at 335 nm; complexes preformed in 20 mM Tris-HCl, 200 mM NaCl, pH 8.0, 4°C, 1 hour, read at room temperature; hyperbolic fit, one single binding site model; both purified

CSKKKK (Pam2 (lipid part of the lipopeptide, as in the name Pam2CSK4)) [Pam2CSK4 lipopeptide]
binding: binds
